Results on 1 molecule are retold here after publication doi:10.64898/2025.12.25.696480.

No constants are given. Whether binding was seen depends on the method and setting. Binding seen in cells or lysates may run through a third protein. Some entries that bind do so weakly or less than the wild type. Where a sequence is shown, tags or fusion partners need not be part of it.

This assay concerns the target T1, GST-PIN2HL (Arabidopsis) (UniProt Q9LU77).
T1 sequence: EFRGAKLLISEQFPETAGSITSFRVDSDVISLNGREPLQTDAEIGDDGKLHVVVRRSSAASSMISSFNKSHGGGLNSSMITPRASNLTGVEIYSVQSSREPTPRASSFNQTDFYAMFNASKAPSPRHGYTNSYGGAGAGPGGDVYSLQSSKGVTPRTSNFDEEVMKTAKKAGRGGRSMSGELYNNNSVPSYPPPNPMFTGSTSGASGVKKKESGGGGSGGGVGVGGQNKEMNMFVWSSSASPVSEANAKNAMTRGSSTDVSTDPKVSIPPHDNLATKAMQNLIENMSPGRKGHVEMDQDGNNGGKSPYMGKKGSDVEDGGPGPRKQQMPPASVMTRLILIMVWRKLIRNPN
As to the kind of experiment: pull-down.

B1: PUB41(ΔU)-eGFP (domain or fragment, UniProt Q0WUF6 122-559)
chain: MDKDPNPSPGQSPGPGDKDPEPEILPPVEENSPSDYDAVMEAIRARSKNSMSPTTSLESVTIGQSSYHPVRAVSMFSSSTTSSSSGVFAGADSPFRNAMSFSSTDHSSSPMSPEEEEIFNKLRGTDIFDHEQGLILLRKMTRSSEDLRVSLCTDRILSFLRSLLVSRYNLVQTNAAASVVNLSLEKQNKVKIVRSGFVPLLIDVLKSGTTEAQEHVAGALFSLALEDENKMVIGVLGAVEPLLHALRSSESERARQDAALALYHLSLIPSNRTRLVRAGAVPTLLSMVRSGDSTSRILLVLCNLAACPDGKGAMLDGNAVAILVGKLREVGGGDSEAARENCVAVLLTLCQGNLRFRGLASEAGAEEVLMEVEENGNERVKEKASKILLAMRGGGGGESEFGENAEAREWNRMLEATGLSRTQFQGGQNGGFAYSSQF
In the case of B1, the binding result is given as “binds”.
